Paper PMC5871717, “Transposase-DNA Complex Structures Reveal Mechanisms for Conjugative Transposition of Antibiotic Resistance” (Cell, 2018)
These are yes or no findings as the source states them, for the method shown.

Key:
[1] = biological target: Int^82N (381C), C-terminal truncation of Int^82N (Enterococcus faecalis) (UniProt Q7BP35); test: SEC; analytical size exclusion chromatography on Superdex 200 10/300, proteins without DNA; both purified
[2] = biological target: Int^82N (390C), C-terminal truncation of Int^82N (Enterococcus faecalis) (UniProt Q7BP35); test: as above
[3] = biological target: Int^82N (390C), C-terminal truncation of Int^82N (Enterococcus faecalis) (UniProt Q7BP35); test: SAXS; 50 mM HEPES pH 7.5, 750 mM NaCl, 5 mM DTT, 10% glycerol; Int^82N at 1.3, 2.63, 4.8 mg/mL, 390C at 0.5, 3.2, 4.18 mg/mL; Mw by calibration with bovine serum albumin; without DNA; both purified
[4] = biological target: Int^82N (384C), C-terminal truncation of Int^82N (Enterococcus faecalis) (UniProt Q7BP35); test: SEC; analytical size exclusion chromatography on Superdex 200 10/300, proteins without DNA; both purified

Int^82N (381C), C-terminal truncation of Int^82N (from UniProt Q7BP35 82-381) (domain or fragment)
binding [1]: no binding

Int^82N (390C), C-terminal truncation of Int^82N (from UniProt Q7BP35 82-390) (domain or fragment)
binding [2]: no binding
binding [3]: no binding (tested: 4.18 mg/mL)

Int^82N (384C), C-terminal truncation of Int^82N (from UniProt Q7BP35 82-384) (domain or fragment)
binding [4]: no binding
